± gives the standard deviation of the averaged measurements. Most entries show no effect beyond the scatter of the controls.
Experiments:
Assay in all cases: level (log10 ratio to DMSO vehicle control); higher = higher biomarker level / cell amount than vehicle control
[1] = compound: C=CC(=O)OCC(F)(F)C(F)(F)C(F)(F)COC(=O)C=C [1H,1H,5H,5H-Perfluoro-1,5-pentanediol diacrylate]; details: 2200 nM; in DMSO
Protocol: (§1)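 BioMAP Diversity Plus panel of 12 human primary cell co-culture systems (3C, 4H, LPS, SAg, BT, BF4T, BE3C, CASM3C, HDF3CGF, KF3CT, MyoF, Mphg). Compounds were added 1 h before stimulation and left for 24 h (MyoF 48 h; BT 72 h for soluble read-outs or 6 d for IgG). Biomarkers were read by ELISA, cytotoxicity by SRB, PBMC viability and proliferation by Alamar Blue. Each well value was divided by the mean of 8 DMSO control wells on the same plate and log10 transformed; duplicate blinded samples were tested at 4 concentrations.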

[2] = compound: C=CC(=O)OCCC(F)(F)C(F)(F)C(F)(F)C(F)(F)C(F)(F)C(F)(F)C(F)(F)C(F)(F)F [8:2 Fluorotelomer acrylate]; details: 2200 nM; in DMSO
Protocol: as §1

[3] = compound: OCCCC(F)(F)C(F)(F)C(F)(F)C(F)(F)C(F)(F)C(F)(F)C(F)(F)F [7:3 Fluorotelomer alcohol]; details: 2200 nM; in DMSO
Protocol: as §1

[4] = compound: O=C(O)C(F)(F)C(F)(F)C(F)(F)C(F)(F)C(F)(F)C(F)(F)C(F)(F)C(F)(F)C(F)(F)C(F)(F)C(F)(F)C(F)(F)C(F)(F)F [Perfluorotetradecanoic acid]; details: in DMSO
Protocol: as §1

Perfluoro-1-iodohexane = compound: FC(F)(F)C(F)(F)C(F)(F)C(F)(F)C(F)(F)C(F)(F)I [Perfluoro-1-iodohexane]; details: in DMSO
Protocol: as §1

[5] = compound: O=S(=O)(O)C(F)(F)C(F)(F)C(F)(F)C(F)(F)C(F)(F)C(F)(F)F [Perfluorohexanesulfonic acid]; details: 2200 nM; in DMSO
Protocol: as §1

Hexafluoroamylene glycol = compound: OCC(F)(F)C(F)(F)C(F)(F)CO [Hexafluoroamylene glycol]; details: 2200 nM; in DMSO
Protocol: as §1

[6] = compound: O=C(O)C=C(C(F)(F)F)C(F)(F)F [3,3-Bis(trifluoromethyl)-2-propenoic acid]; details: in DMSO
Protocol: as §1

[7] = compound: O=C(Cl)C(F)(F)C(F)(F)C(F)(F)C(=O)Cl [Hexafluoroglutaryl chloride]; details: 2200 nM; in DMSO
Protocol: as §1

[8] = compound: FC(F)(I)C(F)(F)C(F)(F)C(F)(F)C(F)(F)C(F)(F)I [1,6-Diiodoperfluorohexane]; details: 2200 nM; in DMSO
Protocol: as §1

[9] = compound: FC(F)(F)C(F)(C(F)(F)F)C(F)(F)C(F)(F)CC1CO1 [3-(Perfluoro-3-methylbutyl)-1,2-propenoxide]; details: in DMSO
Protocol: as §1

[10] = compound: C=CC(=O)OCCC(F)(F)C(F)(F)C(F)(F)C(F)(F)F [2-(Perfluorobutyl)ethyl acrylate]; details: 2200 nM; in DMSO
Protocol: as §1

[11] = compound: O=S(=O)(O)CCC(F)(F)C(F)(F)C(F)(F)C(F)(F)F [4:2 Fluorotelomer sulfonic acid]; details: 2200 nM; in DMSO
Protocol: as §1

Test System | level (log10) [1] | level (log10) [2] | level (log10) [3] | level (log10) ([4]; 740 nM) | level (log10) ([4]; 2200 nM) | level (log10) (Perfluoro-1-iodohexane; 2200 nM) | level (log10) (Perfluoro-1-iodohexane; 6700 nM) | level (log10) (Perfluoro-1-iodohexane; 20000 nM) | level (log10) (Perfluoro-1-iodohexane; 60000 nM) | level (log10) [5] | level (log10) (Hexafluoroamylene glycol) | level (log10) ([6]; 2200 nM) | level (log10) ([6]; 6700 nM) | level (log10) ([6]; 20000 nM) | level (log10) ([6]; 60000 nM) | level (log10) [7] | level (log10) [8] | level (log10) ([9]; 740 nM) | level (log10) ([9]; 2200 nM) | level (log10) [10] | level (log10) [11]
LPS:CD40 | -0.087 ± 0.02 | 0.039 ± 0.021 | 0.0475 ± 0.0064 | 0.0535 ± 0.12 | 0.0215 ± 0.11 | 0.0575 ± 0.013 | 0.058 ± 0.0014 | 0.0375 ± 0.005 | -0.0135 ± 0.061 | 0.0125 ± 0.013 | 0.05 ± 0.017 | -0.033 ± 0.0057 | -0.055 ± 0.024 | -0.061 ± 0.047 | -0.184 | -0.0305 ± 0.023 | -0.004 ± 0.04 | -0.0165 ± 0.022 | -0.0325 ± 0.046 | -0.004 ± 0.051 | 0.0075 ± 0.067
MyoF:PAI-I | 0 ± 0.018 | -0.005 ± 0.018 | 0.017 ± 0.0042 | 0.0155 ± 0.005 | 0.0155 ± 0.0021 | 0.002 ± 0.0071 | -0.001 ± 0.0028 | -0.025 ± 0.0057 | -0.12 ± 0.054 | -0.0115 ± 0.0078 | -0.003 ± 0.0071 | -0.009 ± 0.041 | -0.005 ± 0.0042 | 0.0045 ± 0.0064 | 0.005 ± 0.02 | 0.011 ± 0.024 | -0.002 ± 0.018 | 0.0015 ± 0.005 | -0.003 ± 0.0028 | -0.0035 ± 0.033 | 0.0005 ± 0.00071
BF4T:MMP-3 | 0.0435 ± 0.028 | -0.0035 ± 0.046 | -0.008 ± 0.0042 | 0.0475 ± 0.042 | 0.025 ± 0.0071 | 0.001 ± 0.0057 | 0.004 ± 0.0057 | 0.017 | 0.0635 ± 0.035 | 0.0135 ± 0.05 | 0.014 ± 0.064 | 0.003 ± 0.028 | -0.0165 ± 0.00071 | -0.0105 ± 0.0064 | 0.0205 ± 0.037 | 0.004 ± 0.021 | 0.004 ± 0.014 | 0.004 ± 0.028 | 0.0035 ± 0.012 | 0.0045 ± 0.046 | 0.009 ± 0.027
CASM3C:CD141/Thrombomodulin | -0.016 ± 0.023 | -0.0125 ± 0.018 | -0.0105 ± 0.018 | 0.033 ± 0.011 | 0.0105 ± 0.035 | 0.003 ± 0.016 | 0.0055 ± 0.015 | -0.006 ± 0.0028 | -0.004 ± 0.0028 | -0.0175 ± 0.018 | 0.019 ± 0.065 | 0.006 | 0.03 ± 0.0071 | 0.0275 ± 0.0064 | 0.026 ± 0.0028 | 0.03 ± 0.025 | -0.0285 ± 0.049 | -0.023 ± 0.011 | 0.0175 ± 0.026 | -0.0175 ± 0.005 | 0.0075 ± 0.0021
3C:SRB | -0.0035 ± 0.021 | -0.005 ± 0.0057 | 0.002 ± 0.013 | -0.026 ± 0.0042 | -0.0295 ± 0.0064 | 0.0035 ± 0.005 | -0.0035 ± 0.00071 | -0.0155 ± 0.00071 | -0.0155 ± 0.0021 | -0.0175 ± 0.032 | -0.0175 ± 0.018 | 0.0135 ± 0.028 | 0.0105 ± 0.019 | -0.005 ± 0.025 | -0.062 ± 0.03 | 0.003 ± 0.021 | 0.0185 ± 0.028 | 0.014 ± 0.027 | 0.0075 ± 0.016 | 0.003 ± 0.016 | -0.013 ± 0.0099
3C:Proliferation | -0.155 ± 0.05 | -0.047 ± 0.011 | -0.0075 ± 0.026 | -0.1 ± 0.079 | -0.222 ± 0.16 | -0.036 ± 0.059 | -0.0215 ± 0.0064 | -0.0205 ± 0.013 | -0.041 ± 0.041 | 0.02 ± 0.055 | -0.0375 ± 0.05 | -0.018 ± 0.05 | -0.0425 ± 0.0021 | -0.089 ± 0.02 | -0.189 ± 0.1 | -0.0045 ± 0.0035 | -0.011 ± 0.0099 | -0.039 ± 0.052 | 0.0095 ± 0.032 | -0.0245 ± 0.047 | -0.0005 ± 0.044
LPS:CD62E/E-Selectin | 0.017 ± 0.0028 | 0.006 ± 0.041 | 0.0075 ± 0.0064 | 0.017 ± 0.0057 | 0.011 ± 0.018 | 0.0035 ± 0.021 | -0.0115 ± 0.0035 | -0.0175 ± 0.011 | 0.015 ± 0.023 | -0.0065 ± 0.025 | 0.018 ± 0.067 | -0.012 ± 0.0028 | -0.013 ± 0.021 | -0.025 ± 0.0071 | -0.0345 ± 0.005 | 0.0205 ± 0.0021 | -0.017 ± 0.028 | 0.0065 ± 0.032 | 0.015 ± 0.011 | 0.0225 ± 0.044 | 0.017 ± 0.042
SAg:CD69 | -0.0275 ± 0.098 | -0.015 ± 0.03 | -0.026 ± 0.018 | 0.0125 ± 0.018 | -0.018 ± 0.0071 | -0.0265 ± 0.013 | -0.0155 ± 0.033 | -0.017 ± 0.024 | 0.006 ± 0.0014 | -0.0145 ± 0.005 | -0.0155 ± 0.022 | -0.007 ± 0.0057 | -0.0145 ± 0.013 | -0.0615 ± 0.0092 | -0.171 ± 0.0014 | -0.0205 ± 0.025 | -0.0155 ± 0.016 | -0.0015 ± 0.043 | -0.0005 ± 0.037 | -0.018 ± 0.0042 | -0.0165 ± 0.025
BF4T:MMP-9 | -0.009 ± 0.0042 | -0.0095 ± 0.033 | 0.0015 ± 0.013 | 0.004 ± 0.059 | -0.017 ± 0.051 | -0.0285 ± 0.052 | -0.0005 ± 0.015 | -0.011 ± 0.0042 | -0.021 ± 0.034 | 0.016 ± 0.076 | 0.007 ± 0.038 | -0.0015 ± 0.032 | -0.0155 ± 0.0021 | -0.0185 ± 0.018 | -0.004 ± 0.021 | -0.009 ± 0.023 | -0.015 ± 0.035 | -0.008 ± 0.0085 | 0.003 ± 0.011 | 0.0015 ± 0.061 | 0.0115 ± 0.066
BE3C:CD54/ICAM-1 | 0.002 | 0.005 ± 0.042 | 0.004 ± 0.011 | 0.012 ± 0.013 | -0.003 ± 0.017 | -0.003 ± 0.027 | -0.006 ± 0.0014 | -0.0125 ± 0.015 | -0.005 ± 0.014 | 0.008 ± 0.013 | -0.0025 ± 0.0021 | 0.007 ± 0.02 | -0.004 ± 0.017 | 0.0025 ± 0.0021 | 0.031 ± 0.04 | 0.0215 ± 0.0035 | 0.0045 ± 0.016 | -0.022 ± 0.042 | -0.013 ± 0.013 | 0.0015 ± 0.021 | -0.006 ± 0.0042
KF3CT:MMP-9 | -0.006 ± 0.055 | -0.0275 ± 0.018 | -0.026 ± 0.016 | 0.012 ± 0.024 | -0.003 ± 0.0042 | -0.0205 ± 0.022 | -0.0225 ± 0.0064 | -0.0225 ± 0.0092 | -0.044 ± 0.0099 | 0.0075 ± 0.0021 | -0.016 ± 0.023 | -0.015 ± 0.023 | -0.029 ± 0.025 | -0.031 ± 0.041 | -0.078 ± 0.028 | -0.0305 ± 0.019 | -0.0405 ± 0.03 | -0.014 ± 0.047 | -0.027 ± 0.045 | 0.011 | -0.0045 ± 0.022
SAg:CXCL8/IL-8 | -0.0585 ± 0.13 | 0.0035 ± 0.11 | -0.0155 ± 0.066 | 0.044 ± 0.089 | -0.024 ± 0.017 | -0.001 ± 0.05 | 0.0365 ± 0.016 | -0.004 ± 0.0071 | 0.002 ± 0.059 | 0.026 ± 0.038 | 0.027 ± 0.038 | 0.0195 ± 0.039 | -0.0225 ± 0.025 | -0.101 ± 0.023 | -0.227 ± 0.084 | -0.014 ± 0.033 | 0.027 ± 0.011 | 0.014 ± 0.054 | -0.0205 ± 0.005 | -0.013 ± 0.027 | 0.015 ± 0.0085

Given as a markdown table: part of the list above.

| Test System | level (log10) [1] | level (log10) [2] | level (log10) [3] | level (log10) ([4]; 740 nM) | level (log10) ([4]; 2200 nM) | level (log10) (Perfluoro-1-iodohexane; 2200 nM) | level (log10) (Perfluoro-1-iodohexane; 6700 nM) | level (log10) (Perfluoro-1-iodohexane; 20000 nM) | level (log10) (Perfluoro-1-iodohexane; 60000 nM) | level (log10) [5] | level (log10) (Hexafluoroamylene glycol) | level (log10) ([6]; 2200 nM) | level (log10) ([6]; 6700 nM) | level (log10) ([6]; 20000 nM) | level (log10) ([6]; 60000 nM) | level (log10) [7] | level (log10) [8] | level (log10) ([9]; 740 nM) | level (log10) ([9]; 2200 nM) | level (log10) [10] | level (log10) [11] |
| --- | --- | --- | --- | --- | --- | --- | --- | --- | --- | --- | --- | --- | --- | --- | --- | --- | --- | --- | --- | --- | --- |
| LPS:CD40 | -0.087 ± 0.02 | 0.039 ± 0.021 | 0.0475 ± 0.0064 | 0.0535 ± 0.12 | 0.0215 ± 0.11 | 0.0575 ± 0.013 | 0.058 ± 0.0014 | 0.0375 ± 0.005 | -0.0135 ± 0.061 | 0.0125 ± 0.013 | 0.05 ± 0.017 | -0.033 ± 0.0057 | -0.055 ± 0.024 | -0.061 ± 0.047 | -0.184 | -0.0305 ± 0.023 | -0.004 ± 0.04 | -0.0165 ± 0.022 | -0.0325 ± 0.046 | -0.004 ± 0.051 | 0.0075 ± 0.067 |
| SAg:CXCL8/IL-8 | -0.0585 ± 0.13 | 0.0035 ± 0.11 | -0.0155 ± 0.066 | 0.044 ± 0.089 | -0.024 ± 0.017 | -0.001 ± 0.05 | 0.0365 ± 0.016 | -0.004 ± 0.0071 | 0.002 ± 0.059 | 0.026 ± 0.038 | 0.027 ± 0.038 | 0.0195 ± 0.039 | -0.0225 ± 0.025 | -0.101 ± 0.023 | -0.227 ± 0.084 | -0.014 ± 0.033 | 0.027 ± 0.011 | 0.014 ± 0.054 | -0.0205 ± 0.005 | -0.013 ± 0.027 | 0.015 ± 0.0085 |
